Laboratory results: PubChem BioAssay AID720505 (Drosophila RNAi Screening Center, 2013)
The screen tested about 20,000 reagents; shown is a random part of those that have a named target and a result. In the full data, about 2,100 (10%) are marked active. 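Raw plate signals without normalisation; calls rest on control-based scores that were not deposited; replicate 2 separates called from uncalled poorly.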 Entries without a mark were called inactive. Reagents against one gene are numbered here. Not given: the amount of reagent, the time to read-out.

- Test: 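Fly regulators or components of the CRAC channel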 (primary screen)
- System: Drosophila S2R+ cells
- Reagents: long dsRNA against Drosophila genes
- Treatment: thapsigargin (2 µM) in calcium-free buffer to empty internal stores, then 2 mM calcium added back
- Measurement: 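Fluo-4 signal in 384-well plates read on a FLIPR after thapsigargin (2 µM, calcium-free) store depletion and 2 mM calcium add-back; unnormalised mean endpoint per well; screen run twice, selected wells retested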
- Scale: calcium signal and retest calcium signal: higher = more calcium entry after store depletion
- Active means: 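Knock-downs counted as hits when calcium entry dropped relative to STIM1 positive and Rho1 negative controls present on each plate; roughly 1500 genes called, with reductions of differing size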
- Calls: active = called as lowering calcium entry; inactive = not called

cher
- calcium signal, replicate 1: 192
- calcium signal, replicate 2: 176

Invadolysin
- calcium signal, replicate 1: 68.6 (active)
- calcium signal, replicate 2: 96.3

dac
- calcium signal, replicate 1: 90.4
- calcium signal, replicate 2: 88.2

dtn
- calcium signal, replicate 1: 282
- calcium signal, replicate 2: 78.3

Rbp1
- calcium signal, replicate 1: 112
- calcium signal, replicate 2: 126

Regnase-1
- calcium signal, replicate 1: 117
- calcium signal, replicate 2: 223

sdt #1
- calcium signal, replicate 1: 193
- calcium signal, replicate 2: 143

sdt #2
- calcium signal, replicate 1: 274
- calcium signal, replicate 2: 157

sdt #3
- calcium signal, replicate 1: 205
- calcium signal, replicate 2: 140

sdt #4
- calcium signal, replicate 1: 325
- calcium signal, replicate 2: 169

sdt #5
- calcium signal, replicate 1: 197 (active)
- calcium signal, replicate 2: 130

sdt #6
- calcium signal, replicate 1: 285
- calcium signal, replicate 2: 145

sdt #7
- calcium signal, replicate 1: 275
- calcium signal, replicate 2: 106

CG14280
- calcium signal, replicate 1: 198
- calcium signal, replicate 2: 208

ETHR
- calcium signal, replicate 1: 148
- calcium signal, replicate 2: 106

kl-2
- calcium signal, replicate 1: 129
- calcium signal, replicate 2: 112

CG18223
- calcium signal, replicate 1: 85.2
- calcium signal, replicate 2: 113

Rgk3 #1
- calcium signal, replicate 1: 81.4
- calcium signal, replicate 2: 99.8
- retest calcium signal, replicate 1: 133
- retest calcium signal, replicate 2: 138

Rgk3 #2
- calcium signal, replicate 1: 93.3
- calcium signal, replicate 2: 95.2

Rgk3 #3
- calcium signal, replicate 1: 116
- calcium signal, replicate 2: 107

Rgk3 #4
- calcium signal, replicate 1: 121
- calcium signal, replicate 2: 114

CG32708
- calcium signal, replicate 1: 97.1
- calcium signal, replicate 2: 78.5

l(3)72Dr
- calcium signal, replicate 1: 95
- calcium signal, replicate 2: 156

ND-B14.5B
- calcium signal, replicate 1: 78.4
- calcium signal, replicate 2: 118

Syx18
- calcium signal, replicate 1: 144
- calcium signal, replicate 2: 186

CG9029
- calcium signal, replicate 1: 218
- calcium signal, replicate 2: 98.7

Dr #1
- calcium signal, replicate 1: 56.3 (active)
- calcium signal, replicate 2: 89.7
- retest calcium signal, replicate 1: 138
- retest calcium signal, replicate 2: 7806

Dr #2
- calcium signal, replicate 1: 52.1 (active)
- calcium signal, replicate 2: 85.2

Part of the list above, set out differently.
target | reagent no. | calcium signal, replicate 1 | calcium signal, replicate 2 | retest calcium signal, replicate 1 | retest calcium signal, replicate 2
Rgk3 | 1 | 81.4 | 99.8 | 133 | 138
Rgk3 | 2 | 93.3 | 95.2 | – | –
Rgk3 | 3 | 116 | 107 | – | –
Rgk3 | 4 | 121 | 114 | – | –
